Assay results from patent US20060006323A1, “Method and an apparatus for evaluating toxicity of chemical agents” (priority 2004, published 2006).

System: AhR aryl hydrocarbon receptor
Experiment: comparison of IR spectral peak structures of chemical agent and vicinity of AhR active center
Details: IR spectrum of chemical agent vs AhR receptor

| SMILES | difference in frequencies giving peak structures |
| --- | --- |
| O=C1/C(=C2\Nc3ccccc3C2=O)Nc2ccccc21 [indigo] | about 35 cm^−1 |
| Clc1cc2c(cc1Cl)Oc1cc(Cl)c(Cl)cc1O2 [2,3,7,8-TCDD] | about 35 cm^−1 |
